## Library screening results

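Viability assay of Plasmodium falciparum sporozoites; the read-out is not stated. The concentration is filed as 10 mM, unlikely as a test dose, so the dose is not known. The record gives no direction; compounds that gave an IC50 in retests scored well above the rest, so higher reads as lower viability. Strong results were mostly tested again. Size under these conditions: about 34,000 compounds, about 280 of them at 50% or above in at least one test.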

Results are given as percent effect.
How 0% and 100% were set is not recorded. Most values in the screen are low, and negative values occur.
The compounds are a random part of those screened.
Two or more numbers in one place are separate tests of the same structure; such repeats can differ widely.

structure	percent effect
CC(C)c1n[nH]c(C2CN(C(=O)CCc3cscn3)CCO2)n1 (configuration not stated)	-0.2612%
Cc1nc(C)n(C2CCCN(C(=O)c3cc4ccccc4n3C)C2)n1 (configuration not stated)	10.64%
NCC(c1cccnc1)N1CCOCC1 (configuration not stated)	6.623%
O=C(CCNc1ncccn1)NCc1csc(Br)c1	-7.543%
Cc1noc(C)c1CN1CCn2cc(CN3CCCCC3)nc2C1.O=C(O)C(F)(F)F	5.051%
Cc1cnc(-c2nc(O)c3c(n2)CN(C(=O)CC2CCCC2)CC3)cn1	1.936%
COc1ccc2c(c1)NC(C1CCN(C(=O)C3CC3)CC1)NS2(=O)=O (configuration not stated)	4.262%
O=C(C1CC=CC1)N1Cc2nccn2CC(CN2CCCC2)C1 (configuration not stated)	6.566%
COc1cccc(C2CC(=O)Nc3nc(N)sc32)c1OC (configuration not stated)	-1.466%
CCc1nccn1C1CCCN(C(=O)c2ccc(OC)c(OC)c2)C1 (configuration not stated)	0.3904%
CCC(CC)c1nnc(NC(=O)NC(C)Cn2cccn2)s1 (configuration not stated)	8.49%
Cc1ccc(CN(CCN(C)C)C(=O)Nc2ccc(C)c(C#N)c2)s1	-5.614%
Cl.Cl.O=C(CN1CCN(CC(O)C2CC2)CC1)NCc1ccccc1 (configuration not stated)	-4.208%
Cc1noc(C)c1-c1nc(C2CCCN(C(=O)C(C)C)C2)ccc1CO (configuration not stated)	0.06341%
CN1CC(=O)c2sc(NCCc3ccccc3)nc2C1	6.52%
CCC(=O)N1CCCCC1c1nc(O)c2c(n1)CN(S(C)(=O)=O)CC2 (configuration not stated)	14.76%
CC(=O)N1CC2(CCNCC2)c2cc(Cl)ccc21.Cl	2.888%
CC(=O)Nc1nc(C2CCN(CC(N)=O)CC2)cs1	-6.991%
Cc1nc(C)n(CC2CN(Cc3cccc(C#N)c3)CCO2)n1 (configuration not stated)	8.64%
CC(Cn1cncn1)Nc1ccc(-c2nccn2C)nn1 (configuration not stated)	-26.33% & -14.03%
CCOc1ncccc1CNC(=O)Nc1ccc(OC)c(OC)c1	-5.217%
CN(Cc1ccc(F)cc1)[C@@H]1CN(S(C)(=O)=O)C[C@H]1O	2.396%
O=C(NCc1ccco1)c1cccc(C(=O)NCc2ccco2)n1	-8.447%
CN(Cc1n[nH]c2c1CCCCC2)C(=O)c1cc(-c2cccn2C)n[nH]1	1.791%
Cc1ccc(C(=O)N2CCCC(CNS(C)(=O)=O)C2)o1 (configuration not stated)	1.03%
COCCCNC(=O)Cn1c(C)cc(=O)n2nc(-c3cccs3)nc12	7.539%
CCN1CC2(CC1=O)CN(C(=O)NC(C)C)CCN(C(=O)NC(C)C)C2	0.2568%
O=C(CCCOc1ccccc1F)Nc1cc[nH]n1	-7.598%
[H][C@@]12COC[C@]1(CNS(=O)(=O)CC)CN(Cc1cc(C)on1)C2	-4.343%
[H][C@@]12CCN(S(C)(=O)=O)C[C@]1(C(=O)NCC1CC1)CCO2	6.564%
Cc1cccc(CN2C(=O)CCC23CCN(C(=O)c2ccco2)CC3)n1.O=C(O)C(F)(F)F	3.61%
O=C(COCc1ccccc1Cl)N1CCN(c2ccc(Br)cn2)CC1	8.735%
Cc1nc(C)n(CC2CCCCN2Cc2nnc(C3CC3)o2)n1 (configuration not stated)	5.56%
O=C1CCCN1Cc1ncn2c1CN(C(=O)Cc1ccccc1)CCC2	10.79%
Cc1ccc(C2CCCN2S(=O)(=O)N(C)CCc2ccccn2)o1 (configuration not stated)	8.132%
O=C(CCc1nc(C2CC2)no1)c1ccc(F)c(F)c1	-26.31% & -32.45%
CNc1cc(N2CCCC2CNCc2csc(C)n2)ncn1 (configuration not stated)	-1.698%
Cc1nc(C)n(CC2CCCN(CCOc3ccccc3F)C2)n1 (configuration not stated)	-3.286%
Cc1cc(C)c2[nH]c(C)c(CC(=O)N(C)CCN(C)C)c2c1.O=C(O)CC(O)(CC(=O)O)C(=O)O	5.711%
Cc1cnn(C2CCCN(C(=O)CCc3nccs3)C2)c1 (configuration not stated)	7.36%
O=C(c1cccs1)N1CCC(Cn2nc(-c3ccco3)ccc2=O)CC1	-11.73%
CCc1cccc(OCC(=O)N2CCCC(n3cncn3)C2)c1 (configuration not stated)	5.92%
Cc1nc(COc2ccc(OC3CCCCNC3=O)cc2)oc1C (configuration not stated)	96.35% & 88.4%
COc1ccc(-c2cc(C(=O)NCCCn3ccnc3C)n(C)n2)cc1	13.49%
Cn1cc(-c2cnc3n2CCC32CCN(S(C)(=O)=O)CC2)cn1	1.243%
CN(C)C(=O)CNC(=O)CCn1ncc2c(Cl)cccc21	7.018%
CC(C)NC(=O)c1cc2c(s1)CCN2c1ncccn1	0%
COC(=O)c1sc2cccc(F)c2c1CNC(=O)C1CC1	-12.91%
CCC1(O)CCCN(c2nc(-c3ccccn3)nc3c2c(C)nn3C)C1 (configuration not stated)	-15.54%
CC(NC(=O)c1ccoc1)c1ccc2c(c1)CCC(=O)N2 (configuration not stated)	0.9206%
CCc1nc(CN2CCCN(C(=O)CC(C)OC)CC2)cs1 (configuration not stated)	13.27%
Cc1ccc(C(=O)NCCCN2CCOCC2)c(Cl)c1	8.724%
Cc1ccc2c(n1)N(C)CCN(C(=O)NC1CC1)C2.O=C(O)C(F)(F)F	-2.706%
O=C(O)CC(O)(CC(=O)O)C(=O)O.[H][C@@]12CCCN1C[C@H](CCSC)N(Cc1cnn(CC)c1)C2	7.973%
CCOc1ccc(Oc2cc(CN)ccn2)cc1	-20.05%
Cc1cccc(OCCNC(=O)C(C)S(=O)(=O)C2CCCC2)c1 (configuration not stated)	-9.55%
O=C(CCN1CCc2[nH]nc(C(F)(F)F)c2C1)Nc1ccccc1	-7.898%
CCN(CC)S(=O)(=O)N1CCCC(c2cccc(C(=O)O)c2)C1 (configuration not stated)	-6%
Cn1cc(-c2nc(CN3CCCCC3Cn3cncn3)cs2)cn1 (configuration not stated)	10.29%
O=C(O)C(F)(F)F.[H][C@@]12CN(C(=O)c3ccc(F)cc3)C[C@]1([H])OCCN2c1ncccn1	-7.9%
O=C(c1cnc(-c2cccs2)s1)N1CCCC(n2cccn2)C1 (configuration not stated)	-12.32%
CN(C)CCNc1ccc(-c2nc(-c3ccccc3F)no2)cn1	80.1% & 68.27%
CC(=O)N1CCC2(CC1)CN(CC(C)C)CC21CCNC1=O.O=C(O)C(F)(F)F (configuration not stated)	8.725%
CC(NC(=O)Nc1cccnc1N1CCCC1)c1ccncc1 (configuration not stated)	3.22%
CSCc1cc(F)ccc1CNC(=O)N1CCC(CO)CC1	2.281%
Cc1ccc(CN2C(=O)CC[C@]23CC[C@@H](NC2CCOC2)CC3)cc1.O=C(O)C(F)(F)F (some centres not stated)	-1.027%
Cc1cnn(CCC(=O)NC2CCc3nc(C)cn3C2)c1 (configuration not stated)	3.419%
CCC1CN(C(=O)c2ncccc2O)CCC(=O)N1Cc1ccccc1 (configuration not stated)	-58.66% & -61.44%
Cc1cc(-c2ccc(=O)n(C3CCN(S(C)(=O)=O)CC3)n2)c(C)o1	-1.535%
O=C(O)C(F)(F)F.[H][C@@]12CCN(Cc3ccc(C)s3)C[C@]1(COC)CCO2	3.322%
Cc1cccnc1CN1CCC2(CC(Nc3ccncn3)C2)C1 (configuration not stated)	10.99%
COCC(=O)N1CC[C@@H](N2CCOCC2)[C@@H]1Cc1ccccc1	-14.65%
O=C(O)C(F)(F)F.[H][C@@]12CN(Cc3cccc(C)n3)C[C@]1([H])C(=O)N(CCOC)C2	6.785%
CN1CCN(C(=O)c2n[nH]c3c2CN(C2CCOCC2)CC3)CC1.O=C(O)C(F)(F)F.O=C(O)C(F)(F)F.O=C(O)C(F)(F)F	-6.567%

Source: ChEMBL document CHEMBL3988442, “University of Dundee, Small-Polar-MMV Screening Library” (2021).